Data as given in the supplement of paper PMC10849652.
The list shows a part of the results.

By UniProt entry, the sequences of proteins in these tests, tags left out. Where a name states a change or a piece, a line headed by the entry shows the natural chain unless it says otherwise.
UniProt Q9P0W2: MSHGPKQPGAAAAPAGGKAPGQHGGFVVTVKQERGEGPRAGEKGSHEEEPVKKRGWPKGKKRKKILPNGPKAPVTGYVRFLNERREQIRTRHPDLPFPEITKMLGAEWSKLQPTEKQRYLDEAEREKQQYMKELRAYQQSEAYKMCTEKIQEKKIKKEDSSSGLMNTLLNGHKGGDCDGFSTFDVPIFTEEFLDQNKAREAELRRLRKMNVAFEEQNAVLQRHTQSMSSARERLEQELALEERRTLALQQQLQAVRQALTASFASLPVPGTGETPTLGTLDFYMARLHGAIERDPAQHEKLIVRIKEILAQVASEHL
UniProt O94992, whole entry, looked up: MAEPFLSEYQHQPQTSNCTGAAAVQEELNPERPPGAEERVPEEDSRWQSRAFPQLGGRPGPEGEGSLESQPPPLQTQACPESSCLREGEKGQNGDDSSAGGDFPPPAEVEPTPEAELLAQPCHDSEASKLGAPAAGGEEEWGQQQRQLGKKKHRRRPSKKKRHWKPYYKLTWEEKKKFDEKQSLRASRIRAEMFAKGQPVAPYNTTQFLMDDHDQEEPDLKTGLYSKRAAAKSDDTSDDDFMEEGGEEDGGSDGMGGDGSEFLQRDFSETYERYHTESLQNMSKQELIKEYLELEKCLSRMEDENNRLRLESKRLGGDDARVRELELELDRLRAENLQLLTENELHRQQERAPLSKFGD
UniProt P06865: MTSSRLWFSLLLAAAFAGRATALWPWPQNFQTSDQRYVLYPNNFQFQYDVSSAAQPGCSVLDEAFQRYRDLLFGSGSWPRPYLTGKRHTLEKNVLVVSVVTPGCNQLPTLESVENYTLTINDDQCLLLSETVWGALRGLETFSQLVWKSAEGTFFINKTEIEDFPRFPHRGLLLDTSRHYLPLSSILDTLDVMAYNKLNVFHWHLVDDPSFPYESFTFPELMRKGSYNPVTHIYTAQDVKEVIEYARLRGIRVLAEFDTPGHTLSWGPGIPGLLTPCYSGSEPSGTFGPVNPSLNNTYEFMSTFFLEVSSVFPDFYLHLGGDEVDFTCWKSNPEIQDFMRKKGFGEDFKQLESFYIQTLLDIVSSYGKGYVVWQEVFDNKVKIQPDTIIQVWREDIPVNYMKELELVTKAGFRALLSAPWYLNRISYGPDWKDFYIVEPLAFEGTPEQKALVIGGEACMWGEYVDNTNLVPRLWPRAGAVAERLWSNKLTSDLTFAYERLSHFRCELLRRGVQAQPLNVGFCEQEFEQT
UniProt O75330: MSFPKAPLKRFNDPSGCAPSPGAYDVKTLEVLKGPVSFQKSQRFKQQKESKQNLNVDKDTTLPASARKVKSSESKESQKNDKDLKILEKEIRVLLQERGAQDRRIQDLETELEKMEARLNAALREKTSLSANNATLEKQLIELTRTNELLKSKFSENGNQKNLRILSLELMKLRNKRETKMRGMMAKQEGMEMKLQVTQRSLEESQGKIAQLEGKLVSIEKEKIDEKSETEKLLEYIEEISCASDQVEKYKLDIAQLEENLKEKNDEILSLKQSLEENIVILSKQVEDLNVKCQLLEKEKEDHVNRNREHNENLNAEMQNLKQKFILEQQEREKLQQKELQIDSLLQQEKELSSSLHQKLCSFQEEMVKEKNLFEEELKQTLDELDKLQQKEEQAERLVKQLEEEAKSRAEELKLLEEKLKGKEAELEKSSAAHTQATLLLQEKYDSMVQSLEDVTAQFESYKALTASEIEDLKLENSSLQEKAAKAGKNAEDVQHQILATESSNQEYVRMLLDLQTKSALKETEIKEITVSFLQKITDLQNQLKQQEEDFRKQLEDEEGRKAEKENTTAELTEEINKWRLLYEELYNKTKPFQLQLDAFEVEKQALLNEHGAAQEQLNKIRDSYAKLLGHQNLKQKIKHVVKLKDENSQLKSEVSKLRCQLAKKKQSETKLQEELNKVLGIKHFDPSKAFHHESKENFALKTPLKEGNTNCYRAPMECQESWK
UniProt Q99714: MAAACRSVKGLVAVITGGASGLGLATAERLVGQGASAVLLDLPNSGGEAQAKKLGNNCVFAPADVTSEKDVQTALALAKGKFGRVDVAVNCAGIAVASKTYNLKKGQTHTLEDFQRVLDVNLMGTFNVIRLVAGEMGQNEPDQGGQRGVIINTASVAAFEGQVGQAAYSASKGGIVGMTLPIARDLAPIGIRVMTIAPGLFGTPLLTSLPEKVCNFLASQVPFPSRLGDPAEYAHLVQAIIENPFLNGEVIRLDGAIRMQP
UniProt P82970: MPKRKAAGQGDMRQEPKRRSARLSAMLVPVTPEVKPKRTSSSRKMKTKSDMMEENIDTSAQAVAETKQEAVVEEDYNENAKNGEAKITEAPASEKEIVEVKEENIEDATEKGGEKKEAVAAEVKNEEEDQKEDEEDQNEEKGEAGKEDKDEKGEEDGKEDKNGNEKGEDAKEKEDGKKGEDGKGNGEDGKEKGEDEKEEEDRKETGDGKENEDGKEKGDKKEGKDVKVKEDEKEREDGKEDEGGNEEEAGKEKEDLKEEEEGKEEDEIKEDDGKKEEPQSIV
UniProt Q5T447: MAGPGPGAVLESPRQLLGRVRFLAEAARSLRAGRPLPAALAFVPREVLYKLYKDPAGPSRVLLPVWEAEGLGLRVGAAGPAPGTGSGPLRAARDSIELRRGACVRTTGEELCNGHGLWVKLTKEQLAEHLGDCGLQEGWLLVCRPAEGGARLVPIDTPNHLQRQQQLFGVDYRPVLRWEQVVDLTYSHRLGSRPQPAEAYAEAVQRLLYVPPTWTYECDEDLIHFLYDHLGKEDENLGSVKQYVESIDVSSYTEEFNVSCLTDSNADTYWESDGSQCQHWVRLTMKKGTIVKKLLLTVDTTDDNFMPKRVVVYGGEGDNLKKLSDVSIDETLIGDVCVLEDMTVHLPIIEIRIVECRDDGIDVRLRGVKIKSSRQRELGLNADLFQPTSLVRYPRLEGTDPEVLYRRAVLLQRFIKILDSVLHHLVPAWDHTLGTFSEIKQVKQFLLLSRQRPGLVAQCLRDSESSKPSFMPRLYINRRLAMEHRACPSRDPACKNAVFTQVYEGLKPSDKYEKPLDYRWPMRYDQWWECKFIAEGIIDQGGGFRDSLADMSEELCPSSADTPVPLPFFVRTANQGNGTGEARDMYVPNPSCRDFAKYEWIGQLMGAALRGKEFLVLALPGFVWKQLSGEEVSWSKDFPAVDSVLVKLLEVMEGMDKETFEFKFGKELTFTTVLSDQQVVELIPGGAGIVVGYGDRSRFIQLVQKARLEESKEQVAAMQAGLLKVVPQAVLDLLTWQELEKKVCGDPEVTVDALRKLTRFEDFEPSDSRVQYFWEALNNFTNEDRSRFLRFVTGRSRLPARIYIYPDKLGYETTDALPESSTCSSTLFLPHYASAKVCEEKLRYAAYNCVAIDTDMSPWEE
UniProt Q6YN16: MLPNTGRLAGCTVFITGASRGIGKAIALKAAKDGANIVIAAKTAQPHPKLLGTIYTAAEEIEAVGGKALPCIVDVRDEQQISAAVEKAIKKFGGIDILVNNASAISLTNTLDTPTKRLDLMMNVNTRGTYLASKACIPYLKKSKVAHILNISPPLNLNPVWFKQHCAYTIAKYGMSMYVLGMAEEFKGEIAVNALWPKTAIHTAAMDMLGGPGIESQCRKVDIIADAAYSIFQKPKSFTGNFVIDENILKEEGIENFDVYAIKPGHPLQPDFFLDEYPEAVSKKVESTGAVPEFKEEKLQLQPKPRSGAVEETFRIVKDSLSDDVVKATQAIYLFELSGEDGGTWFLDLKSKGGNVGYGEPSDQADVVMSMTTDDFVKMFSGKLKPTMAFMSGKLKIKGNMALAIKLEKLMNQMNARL
UniProt Q13151: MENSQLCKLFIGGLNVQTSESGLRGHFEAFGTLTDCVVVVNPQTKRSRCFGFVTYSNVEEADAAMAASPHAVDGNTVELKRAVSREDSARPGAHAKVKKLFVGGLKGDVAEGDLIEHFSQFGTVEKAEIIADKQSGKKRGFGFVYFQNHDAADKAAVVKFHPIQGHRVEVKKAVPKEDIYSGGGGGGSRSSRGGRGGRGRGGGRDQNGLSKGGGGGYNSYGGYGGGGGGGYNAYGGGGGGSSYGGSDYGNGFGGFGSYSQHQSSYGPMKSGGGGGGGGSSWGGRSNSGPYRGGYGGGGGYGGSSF
UniProt Q8IX15: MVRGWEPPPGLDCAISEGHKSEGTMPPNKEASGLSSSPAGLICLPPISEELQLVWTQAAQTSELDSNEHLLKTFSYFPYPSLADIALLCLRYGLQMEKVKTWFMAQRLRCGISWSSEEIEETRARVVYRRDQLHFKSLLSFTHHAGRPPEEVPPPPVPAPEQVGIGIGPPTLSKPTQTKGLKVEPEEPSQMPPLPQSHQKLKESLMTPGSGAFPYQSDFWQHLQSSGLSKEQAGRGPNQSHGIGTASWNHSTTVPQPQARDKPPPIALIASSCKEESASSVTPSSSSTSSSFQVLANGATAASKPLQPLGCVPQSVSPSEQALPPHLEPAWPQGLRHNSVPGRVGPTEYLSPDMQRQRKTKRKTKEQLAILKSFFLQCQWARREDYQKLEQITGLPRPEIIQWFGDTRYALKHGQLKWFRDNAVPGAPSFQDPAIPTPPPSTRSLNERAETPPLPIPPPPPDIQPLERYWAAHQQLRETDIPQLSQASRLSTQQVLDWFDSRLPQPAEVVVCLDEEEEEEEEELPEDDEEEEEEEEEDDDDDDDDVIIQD
UniProt Q96JB3: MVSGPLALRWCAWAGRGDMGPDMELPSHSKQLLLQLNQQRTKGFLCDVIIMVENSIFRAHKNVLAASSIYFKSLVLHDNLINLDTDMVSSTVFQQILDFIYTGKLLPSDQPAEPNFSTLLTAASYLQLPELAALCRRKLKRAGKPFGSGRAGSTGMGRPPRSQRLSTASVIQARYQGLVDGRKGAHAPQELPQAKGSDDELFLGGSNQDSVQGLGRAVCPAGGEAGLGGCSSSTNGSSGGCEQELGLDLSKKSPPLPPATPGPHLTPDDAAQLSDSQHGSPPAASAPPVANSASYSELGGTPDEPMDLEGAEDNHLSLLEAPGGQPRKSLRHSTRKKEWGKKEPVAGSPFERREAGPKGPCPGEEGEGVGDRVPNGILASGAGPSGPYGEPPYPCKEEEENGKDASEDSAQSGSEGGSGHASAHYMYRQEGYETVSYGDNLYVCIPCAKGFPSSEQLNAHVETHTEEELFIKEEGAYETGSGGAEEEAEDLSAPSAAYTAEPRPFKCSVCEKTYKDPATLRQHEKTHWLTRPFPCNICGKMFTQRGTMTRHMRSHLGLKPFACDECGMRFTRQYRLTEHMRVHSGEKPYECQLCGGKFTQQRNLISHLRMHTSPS
UniProt O14964, whole entry, looked up: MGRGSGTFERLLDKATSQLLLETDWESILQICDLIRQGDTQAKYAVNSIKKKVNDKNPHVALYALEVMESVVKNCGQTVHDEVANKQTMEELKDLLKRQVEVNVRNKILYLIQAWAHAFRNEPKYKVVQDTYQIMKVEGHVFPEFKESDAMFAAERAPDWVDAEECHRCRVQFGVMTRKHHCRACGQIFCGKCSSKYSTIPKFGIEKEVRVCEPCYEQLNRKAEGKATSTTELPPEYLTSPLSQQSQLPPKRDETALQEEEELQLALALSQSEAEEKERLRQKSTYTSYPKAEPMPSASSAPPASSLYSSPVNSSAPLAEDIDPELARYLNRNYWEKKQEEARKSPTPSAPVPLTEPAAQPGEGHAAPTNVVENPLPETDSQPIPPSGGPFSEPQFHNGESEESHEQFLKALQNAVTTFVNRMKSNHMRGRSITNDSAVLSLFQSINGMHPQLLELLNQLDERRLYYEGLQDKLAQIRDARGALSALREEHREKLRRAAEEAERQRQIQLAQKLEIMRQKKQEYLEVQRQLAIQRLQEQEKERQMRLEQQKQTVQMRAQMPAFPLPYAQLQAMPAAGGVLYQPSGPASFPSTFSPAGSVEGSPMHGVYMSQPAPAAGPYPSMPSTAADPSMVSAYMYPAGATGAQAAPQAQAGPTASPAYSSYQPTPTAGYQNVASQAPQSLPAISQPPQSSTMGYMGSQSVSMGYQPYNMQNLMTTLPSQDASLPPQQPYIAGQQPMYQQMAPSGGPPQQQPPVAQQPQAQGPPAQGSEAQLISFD
UniProt Q00613: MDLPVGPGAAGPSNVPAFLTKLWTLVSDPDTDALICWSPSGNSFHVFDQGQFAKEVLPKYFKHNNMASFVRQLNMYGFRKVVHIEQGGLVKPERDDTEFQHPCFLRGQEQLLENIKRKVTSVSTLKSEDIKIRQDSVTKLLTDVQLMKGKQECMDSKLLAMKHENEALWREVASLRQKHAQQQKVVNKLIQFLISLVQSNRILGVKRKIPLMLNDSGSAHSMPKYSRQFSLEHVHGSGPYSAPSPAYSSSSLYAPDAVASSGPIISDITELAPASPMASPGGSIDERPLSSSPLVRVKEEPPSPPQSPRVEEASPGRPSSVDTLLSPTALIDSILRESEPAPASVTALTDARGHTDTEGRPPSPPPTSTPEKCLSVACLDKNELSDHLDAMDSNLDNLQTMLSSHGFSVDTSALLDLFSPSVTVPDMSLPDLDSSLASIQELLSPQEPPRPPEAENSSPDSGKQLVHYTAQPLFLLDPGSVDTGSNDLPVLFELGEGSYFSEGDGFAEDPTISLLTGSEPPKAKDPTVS

Tests used:
Experiment in all cases: log2 fold change, soluble protein after heating vs DMSO (PISA); higher = thermal stabilisation; K562 lysate, 10 uM; active = over 0.2 and 3.5 SD of the protein, either way, in both replicates (recomputed)
lapatinib = compound: CS(=O)(=O)CCNCc1ccc(-c2ccc3ncnc(Nc4ccc(OCc5cccc(F)c5)c(Cl)c4)c3c2)o1 [lapatinib]
How it was run: (§1)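 Quantification was by TMTpro 16plex LC-MS/MS with equalised channel sums, applied to the supernatant after 21,000xg for 90 min. Samples were crude K562 extract at 1 mg/mL protein in PBS pH 7.4 with 1 mM MgCl2, treated with 10 μM compound for 30 min, heated for 3 min across 48°C-58°C, pooled and brought to 0.5% NP-40 at 4°C. Values are log-two fold changes in thermal stability relative to solvent controls, from duplicates.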

pictilisib = compound: CS(=O)(=O)N1CCN(Cc2cc3nc(-c4cccc5[nH]ncc45)nc(N4CCOCC4)c3s2)CC1 [pictilisib]
How it was run: as §1

crizotinib = compound: C[C@@H](Oc1cc(-c2cnn(C3CCNCC3)c2)cnc1N)c1c(Cl)ccc(F)c1Cl [crizotinib]
How it was run: as §1

[1] = compound: C[C@H](C1=CC=C(C=C1)C(=O)NC2=C3C=CNC3=NC=C2)N
How it was run: as §1

duvelisib = compound: C[C@H](Nc1ncnc2nc[nH]c12)c1cc2cccc(Cl)c2c(=O)n1-c1ccccc1 [duvelisib]
How it was run: as §1

gandotinib = compound: Cc1cc(Nc2cc(CN3CCOCC3)c3nc(C)c(Cc4ccc(Cl)cc4F)n3n2)n[nH]1 [gandotinib]
How it was run: as §1

tozasertib = compound: Cc1cc(Nc2cc(N3CCN(C)CC3)nc(Sc3ccc(NC(=O)C4CC4)cc3)n2)n[nH]1 [tozasertib]
How it was run: as §1

doramapimod = compound: Cc1ccc(-n2nc(C(C)(C)C)cc2NC(=O)Nc2ccc(OCCN3CCOCC3)c3ccccc23)cc1 [doramapimod]
How it was run: as §1

bafetinib = compound: Cc1ccc(NC(=O)c2ccc(CN3CC[C@H](N(C)C)C3)c(C(F)(F)F)c2)cc1Nc1nccc(-c2cncnc2)n1 [bafetinib]
How it was run: as §1

[2] = compound: Cc1cccc(CC(=O)N2CCc3c2ccc(-c2cn(C)c4ncnc(N)c24)c3F)n1
How it was run: as §1

nilotinib = compound: Cc1cn(-c2cc(NC(=O)c3ccc(C)c(Nc4nccc(-c5cccnc5)n4)c3)cc(C(F)(F)F)c2)cn1 [nilotinib]
How it was run: as §1

[3] = compound: Cc1nc(Nc2n[nH]c3c2CN(C(=O)N[C@H](CN(C)C)c2ccccc2)C3(C)C)c2sccc2n1
How it was run: as §1

dasatinib = compound: Cc1nc(Nc2ncc(C(=O)Nc3c(C)cccc3Cl)s2)cc(N2CCN(CCO)CC2)n1 [dasatinib]
How it was run: as §1

[4] = compound: Cc1ncc(-c2ccnc(Nc3ccc(S(C)(=O)=O)cc3)n2)n1C(C)C
How it was run: as §1

[5] = compound: Cn1cc(-c2ccc3c(c2)CCN3C(=O)Cc2cccc(C(F)(F)F)c2)c2c(N)ncnc21
How it was run: as §1

quisinostat = compound: Cn1cc(CNCC2CCN(c3ncc(C(=O)NO)cn3)CC2)c2ccccc21 [quisinostat]
How it was run: as §1

tipifarnib = compound: Cn1cncc1[C@@](N)(c1ccc(Cl)cc1)c1ccc2c(c1)c(-c1cccc(Cl)c1)cc(=O)n2C [tipifarnib]
How it was run: as §1

[6] = compound: NC(=O)Nc1cc(-c2cccc(F)c2)sc1C(=O)N[C@H]1CCCNC1
How it was run: as §1

[7] = compound: NC(=O)c1cnc(N[C@@H]2CCCC[C@@H]2N)nc1Nc1cccc(-n2nccn2)c1
How it was run: as §1

[8] = compound: NC1(c2ccc(-c3nc4ccn5c(=O)[nH]nc5c4cc3-c3ccccc3)cc2)CCC1
How it was run: as §1

Measured: log2 fold change

HMG20B (UniProt Q9P0W2)
inactive: lapatinib -0.056 | pictilisib 0.009 | crizotinib 0.003 | [1] -0.013 | duvelisib -0.027 | gandotinib -0.082 | tozasertib -0.103 | doramapimod -0.009 | bafetinib -0.054 | [2] -0.03 | nilotinib -0.01 | [3] 0.026 | dasatinib 0.005 | [4] 0.06 | [5] 0.021 | quisinostat -0.087 | tipifarnib -0.018 | [6] 0.039 | [7] 0.049 | [8] -0.036

HEXIM1 (UniProt O94992)
inactive: lapatinib -0.006 | pictilisib 0.015 | crizotinib 0.009 | [1] -0.023 | duvelisib 0.001 | gandotinib 0.02 | tozasertib -0.008 | doramapimod 0.05 | bafetinib 0.004 | [2] -0.017 | nilotinib -0.093 | [3] 0.057 | dasatinib 0.018 | [4] 0.01 | [5] -0.036 | quisinostat -0.001 | tipifarnib 0.019 | [6] -0.025 | [7] 0.005 | [8] -0.023

HEXA (UniProt P06865)
inactive: lapatinib -0.008 | pictilisib -0.032 | crizotinib 0.01 | [1] -0.034 | duvelisib -0.03 | gandotinib 0.012 | tozasertib 0.002 | doramapimod -0.006 | bafetinib 0.011 | [2] -0.001 | nilotinib 0.028 | [3] -0.035 | dasatinib -0.022 | [4] -0.014 | [5] 0.008 | quisinostat 0.005 | tipifarnib 0.011 | [6] -0.031 | [7] -0.008 | [8] 0.004

Quoted at random: 2 records from the list
HEXA (UniProt P06865)
inactive: lapatinib -0.008 | pictilisib -0.032 | crizotinib 0.01 | [1] -0.034 | duvelisib -0.03 | gandotinib 0.012 | tozasertib 0.002 | doramapimod -0.006 | bafetinib 0.011 | [2] -0.001 | nilotinib 0.028 | [3] -0.035 | dasatinib -0.022 | [4] -0.014 | [5] 0.008 | quisinostat 0.005 | tipifarnib 0.011 | [6] -0.031 | [7] -0.008 | [8] 0.004

HMG20B (UniProt Q9P0W2)
inactive: lapatinib -0.056 | pictilisib 0.009 | crizotinib 0.003 | [1] -0.013 | duvelisib -0.027 | gandotinib -0.082 | tozasertib -0.103 | doramapimod -0.009 | bafetinib -0.054 | [2] -0.03 | nilotinib -0.01 | [3] 0.026 | dasatinib 0.005 | [4] 0.06 | [5] 0.021 | quisinostat -0.087 | tipifarnib -0.018 | [6] 0.039 | [7] 0.049 | [8] -0.036

Later entries.

HNRNPL (UniProt P14866)
inactive: lapatinib 0.005 | pictilisib -0.02 | crizotinib -0.042 | [1] 0.018 | duvelisib 0.03 | gandotinib -0.081 | tozasertib -0.011 | doramapimod -0.018 | bafetinib 0.004 | [2] -0.016 | nilotinib -0.011 | [3] -0.015 | dasatinib -0.036 | [4] 0.013 | [5] 0.068 | quisinostat -0.07 | tipifarnib 0.012 | [6] 0.042 | [7] -0.001 | [8] 0.022

HMMR isoform 3 (UniProt O75330)
inactive: lapatinib 0.003 | pictilisib 0.005 | crizotinib 0.031 | [1] -0.009 | duvelisib -0.012 | gandotinib 0.024 | tozasertib 0.018 | doramapimod 0.021 | bafetinib -0.02 | [2] 0.005 | nilotinib -0.03 | [3] 0.02 | dasatinib 0.008 | [4] -0.004 | [5] 0.026 | quisinostat -0.009 | tipifarnib -0.019 | [6] -0.012 | [7] 0.014 | [8] 0.03

HSD17B10 (UniProt Q99714)
inactive: lapatinib -0.031 | pictilisib -0.013 | crizotinib 0.002 | [1] -0.049 | duvelisib 0.013 | gandotinib 0.022 | tozasertib -0.031 | doramapimod -0.008 | bafetinib 0 | [2] 0.026 | nilotinib 0 | [3] -0.044 | dasatinib -0.034 | [4] -0.001 | [5] -0.017 | quisinostat -0.01 | tipifarnib 0.008 | [6] 0.013 | [7] -0.002 | [8] 0.005

HMGN5 (UniProt P82970)
inactive: lapatinib -0.058 | pictilisib 0.032 | crizotinib 0.046 | [1] 0.239 | duvelisib 0.018 | gandotinib -0.081 | tozasertib 0.02 | doramapimod -0.066 | bafetinib 0.013 | [2] -0.184 | nilotinib 0.029 | [3] 0.001 | dasatinib 0.03 | [4] 0.019 | [5] -0.003 | quisinostat 0.074 | tipifarnib 0.04 | [6] -0.042 | [7] -0.027 | [8] -0.003

HECTD3 (UniProt Q5T447)
inactive: lapatinib -0.047 | pictilisib -0.098 | crizotinib -0.034 | [1] -0.001 | duvelisib -0.006 | gandotinib -0.013 | tozasertib 0.018 | doramapimod 0.056 | bafetinib -0.13 | [2] -0.004 | nilotinib -0.004 | [3] 0.041 | dasatinib -0.016 | [4] -0.012 | [5] 0.006 | quisinostat 0.026 | tipifarnib 0.059 | [6] 0.05 | [7] 0.003 | [8] 0.056

HSDL2 (UniProt Q6YN16)
inactive: lapatinib -0.002 | pictilisib 0.003 | crizotinib -0.006 | [1] -0.089 | duvelisib -0.028 | gandotinib 0.073 | tozasertib 0 | doramapimod -0.011 | bafetinib -0.027 | [2] 0.097 | nilotinib 0 | [3] 0.007 | dasatinib -0.02 | [4] 0.019 | [5] 0.013 | quisinostat -0.012 | tipifarnib 0.005 | [6] 0.033 | [7] 0.004 | [8] -0.021

HNRNPR (UniProt O43390)
inactive: lapatinib -0.066 | pictilisib -0.039 | crizotinib -0.132 | [1] 0.001 | duvelisib -0.03 | gandotinib -0.046 | tozasertib 0.111 | doramapimod 0.118 | bafetinib -0.004 | [2] -0.054 | nilotinib -0.001 | [3] 0.112 | dasatinib 0.02 | [4] 0.263 | [5] -0.074 | quisinostat -0.067 | tipifarnib -0.006 | [6] -0.034 | [7] 0.004 | [8] -0.036

HERC4 (UniProt Q5GLZ8)
inactive: lapatinib -0.003 | pictilisib 0.004 | crizotinib -0.031 | [1] -0.107 | duvelisib -0.002 | gandotinib 0.017 | tozasertib 0.02 | doramapimod 0.032 | bafetinib -0.029 | [2] 0.048 | nilotinib 0.003 | [3] -0.02 | dasatinib -0.011 | [4] 0.008 | [5] -0.015 | quisinostat -0.06 | tipifarnib 0.019 | [6] 0.004 | [7] -0.007 | [8] -0.048

HNRNPA0 (UniProt Q13151)
inactive: lapatinib 0.017 | pictilisib 0.022 | crizotinib -0.032 | [1] 0.003 | duvelisib -0.074 | gandotinib -0.027 | tozasertib -0.028 | doramapimod -0.015 | bafetinib -0.023 | [2] -0.059 | nilotinib -0.08 | [3] -0.024 | dasatinib -0.062 | [4] -0.017 | [5] 0.011 | quisinostat -0.038 | tipifarnib 0.023 | [6] 0.047 | [7] 0.036 | [8] 0.012

HOMEZ isoform 3 (UniProt Q8IX15)
inactive: lapatinib -0.039 | pictilisib 0.029 | crizotinib 0.017 | [1] -0.246 | duvelisib 0.025 | gandotinib 0.033 | tozasertib -0.044 | doramapimod -0.089 | bafetinib -0.126 | [2] -0.126 | nilotinib -0.033 | [3] -0.032 | dasatinib -0.007 | [4] 0.306 | [5] -0.001 | quisinostat -0.005 | tipifarnib 0.054 | [6] 0.037 | [7] -0.002 | [8] -0.048

HIC2 (UniProt Q96JB3)
inactive: lapatinib 0.036 | pictilisib 0.002 | crizotinib 0.016 | [1] -0.013 | duvelisib 0.027 | gandotinib 0.013 | tozasertib 0.016 | doramapimod -0.013 | bafetinib -0.059 | [2] 0.05 | nilotinib 0.053 | [3] 0 | dasatinib -0.032 | [4] 0.005 | [5] 0.031 | quisinostat 0.078 | tipifarnib -0.076 | [6] -0.027 | [7] 0.019 | [8] -0.071

HGS (UniProt O14964)
inactive: lapatinib 0.012 | pictilisib -0.008 | crizotinib 0.025 | [1] 0.031 | duvelisib -0.014 | gandotinib -0.013 | tozasertib -0.009 | doramapimod 0.006 | bafetinib -0.019 | [2] 0.011 | nilotinib -0.013 | [3] 0.002 | dasatinib -0.012 | [4] 0.033 | [5] 0.001 | quisinostat 0.047 | tipifarnib 0.016 | [6] -0.027 | [7] -0.009 | [8] 0.013

HSF1 (UniProt Q00613)
inactive: lapatinib -0.031 | pictilisib -0.005 | crizotinib 0.002 | [1] 0.088 | duvelisib -0.03 | gandotinib -0.052 | tozasertib -0.018 | doramapimod -0.009 | bafetinib 0.028 | [2] -0.039 | nilotinib -0.009 | [3] 0.046 | dasatinib -0.034 | [4] -0.041 | [5] -0.015 | quisinostat -0.033 | tipifarnib 0.064 | [6] 0.018 | [7] 0.005 | [8] -0.059
